No constants are given. Whether binding was seen depends on the method and setting. Some results given as binding are weak or reduced against the parent protein; the word gives no strength.
Tests used:
[1] = target: full-length wild-type human L1 expressed in COS7 cells (human) (UniProt P32004); experiment: immunofluorescence on L1-expressing cells (FIG. 3)
[2] = target: full-length wild-type human L1 expressed in COS7 cells (human) (UniProt P32004); experiment: immunodetection with anti-Fc antibodies on COS7 cells transfected with full-length wild-type L1
[3] = target: full-length wild-type human L1 expressed in COS7 cells (human) (UniProt P32004); experiment: immunofluorescence on COS cells expressing wild-type L1 (FIG. 2A)
[4] = target: T1, wild-type L1Fc chimeric protein (human, UniProt P32004 20-1120); experiment: two-color FACS bead aggregation (FIG. 2B)
T1 construct: Produced in COS-7 cells, purified on protein A-Sepharose; in the two-color assay it was held on anti-human IgG coated beads; also called soluble L1; wt; not shown: immunoglobulin Fc, human (cross-linked with anti-human Fc antibodies)

[5] = target: full-length wild-type human L1 expressed in COS7 cells (human) (UniProt P32004); experiment: immunofluorescence on COS7 cells transfected with full-length wild-type L1
[6] = target: T1, wild-type L1Fc chimeric protein; experiment: two-color FACS bead aggregation
[7] = target: T1, wild-type L1Fc chimeric protein; experiment: two-color FACS bead aggregation, mutant to wild-type (FIG. 2B)

| Molecule | binding [3] | binding [4] | binding [5] | further results |
| --- | --- | --- | --- | --- |
| wild-type L1Fc chimeric protein (from UniProt P32004 20-1120) (Fc fusion) |  |  |  | binding [1]: binds; binding [2]: binds |
| L120V mutant L1Fc chimera (from UniProt P32004 20-1120) (Fc fusion) | binds |  |  |  |
| A426D mutant L1Fc chimera (Fc fusion, UniProt P32004 20-1120, looked up, not shown: immunoglobulin Fc, human) IQIPEEYEGHHVMEPPVITEQSPRRLVVFPTDDISLKCEASGKPEVQFRWTRDGVHFKPKEELGVTVYQSPHSGSFTITGNNSNFAQRFQGIYRCFASNKLGTAMSHEIRLMAEGAPKWPKETVKPVEVEEGESVVLPCNPPPSAEPLRIYWMNSKILHIKQDERVTMGQNGNLYFANVLTSDNHSDYICHAHFPGTRTIIQKEPIDLRVKATNSMIDRKPRLLFPTNSSSHLVALQGQPLVLECIAEGFPTPTIKWLRPSGPMPADRVTYQNHNKTLQLLKVGEEDDGEYRCLAENSLGSARHAYYVTVEAAPYWLHKPQSHLYGPGETARLDCQVQGRPQPEVTWRINGIPVEELAKDQKYRIQRGALILSNVQPSDTMVTQCEARNRHGLLLANAYIYVVQLPDKILTADNQTYMAVQGSTAYLLCKAFGAPVPSVQWLDEDGTTVLQDERFFPYANGTLGIRDLQANDTGRYFCLAANDQNNVTIMANLKVKDATQITQGPRSTIEKKGSRVTFTCQASFDPSLQPSITWRGDGRDLQELGDSDKYFIEDGRLVIHSLDYSDQGNYSCVASTELDVVESRAQLLVVGSPGPVPRLVLSDLHLLTQSQVRVSWSPAEDHNAPIEKYDIEFEDKEMAPEKWYSLGKVPGNQTSTTLKLSPYVHYTFRVTAINKYGPGEPSPVSETVVTPEAAPEKNPVDVKGEGNETTNMVITWKPLRWMDWNAPQVQYRVQWRPQGTRGPWQEQIVSDPFLVVSNTSTFVPYEIKVQAVNSQGKGPEPQVTIGYSGEDYPQAIPELEGIEILNSSAVLVKWRPVDLAQVKGHLRGYNVTYWREGSQRKHSKRHIHKDHVVVPANTTSVILSGLRPYSSYHLEVQAFNGRGSGPASEFTFSTPEGVPGHPEALHLECQSNTSLLLRWQPPLSHNGVLTGYVLSYHPLDEGGKGQLSFNLRDPELRTHNLTDLSPHLRYRFQLQATTKEGPGEAIVREGGTMALSGISDFGNISATAGENYSVVSWVPKEGQCNFRFHILFKALGEEKGGASLSPQYVSYNQSSYTQWDLQPDTDYEIHLFKERMFRHQMAVKTNGTGRVRLPPAGFATE | binds | binds | binds |  |
| G121S mutant L1Fc chimera (Fc fusion, UniProt P32004 20-1120, looked up, also called G121S-L1Fc; not shown: immunoglobulin Fc, human) IQIPEEYEGHHVMEPPVITEQSPRRLVVFPTDDISLKCEASGKPEVQFRWTRDGVHFKPKEELGVTVYQSPHSGSFTITGNNSNFAQRFQGIYRCFASNKLSTAMSHEIRLMAEGAPKWPKETVKPVEVEEGESVVLPCNPPPSAEPLRIYWMNSKILHIKQDERVTMGQNGNLYFANVLTSDNHSDYICHAHFPGTRTIIQKEPIDLRVKATNSMIDRKPRLLFPTNSSSHLVALQGQPLVLECIAEGFPTPTIKWLRPSGPMPADRVTYQNHNKTLQLLKVGEEDDGEYRCLAENSLGSARHAYYVTVEAAPYWLHKPQSHLYGPGETARLDCQVQGRPQPEVTWRINGIPVEELAKDQKYRIQRGALILSNVQPSDTMVTQCEARNRHGLLLANAYIYVVQLPAKILTADNQTYMAVQGSTAYLLCKAFGAPVPSVQWLDEDGTTVLQDERFFPYANGTLGIRDLQANDTGRYFCLAANDQNNVTIMANLKVKDATQITQGPRSTIEKKGSRVTFTCQASFDPSLQPSITWRGDGRDLQELGDSDKYFIEDGRLVIHSLDYSDQGNYSCVASTELDVVESRAQLLVVGSPGPVPRLVLSDLHLLTQSQVRVSWSPAEDHNAPIEKYDIEFEDKEMAPEKWYSLGKVPGNQTSTTLKLSPYVHYTFRVTAINKYGPGEPSPVSETVVTPEAAPEKNPVDVKGEGNETTNMVITWKPLRWMDWNAPQVQYRVQWRPQGTRGPWQEQIVSDPFLVVSNTSTFVPYEIKVQAVNSQGKGPEPQVTIGYSGEDYPQAIPELEGIEILNSSAVLVKWRPVDLAQVKGHLRGYNVTYWREGSQRKHSKRHIHKDHVVVPANTTSVILSGLRPYSSYHLEVQAFNGRGSGPASEFTFSTPEGVPGHPEALHLECQSNTSLLLRWQPPLSHNGVLTGYVLSYHPLDEGGKGQLSFNLRDPELRTHNLTDLSPHLRYRFQLQATTKEGPGEAIVREGGTMALSGISDFGNISATAGENYSVVSWVPKEGQCNFRFHILFKALGEEKGGASLSPQYVSYNQSSYTQWDLQPDTDYEIHLFKERMFRHQMAVKTNGTGRVRLPPAGFATE |  |  |  | binding [6]: binds; binding [7]: binds |
| H210Q mutant L1Fc chimera (Fc fusion, UniProt P32004 20-1120, looked up, not shown: immunoglobulin Fc, human) IQIPEEYEGHHVMEPPVITEQSPRRLVVFPTDDISLKCEASGKPEVQFRWTRDGVHFKPKEELGVTVYQSPHSGSFTITGNNSNFAQRFQGIYRCFASNKLGTAMSHEIRLMAEGAPKWPKETVKPVEVEEGESVVLPCNPPPSAEPLRIYWMNSKILHIKQDERVTMGQNGNLYFANVLTSDNHSDYICQAHFPGTRTIIQKEPIDLRVKATNSMIDRKPRLLFPTNSSSHLVALQGQPLVLECIAEGFPTPTIKWLRPSGPMPADRVTYQNHNKTLQLLKVGEEDDGEYRCLAENSLGSARHAYYVTVEAAPYWLHKPQSHLYGPGETARLDCQVQGRPQPEVTWRINGIPVEELAKDQKYRIQRGALILSNVQPSDTMVTQCEARNRHGLLLANAYIYVVQLPAKILTADNQTYMAVQGSTAYLLCKAFGAPVPSVQWLDEDGTTVLQDERFFPYANGTLGIRDLQANDTGRYFCLAANDQNNVTIMANLKVKDATQITQGPRSTIEKKGSRVTFTCQASFDPSLQPSITWRGDGRDLQELGDSDKYFIEDGRLVIHSLDYSDQGNYSCVASTELDVVESRAQLLVVGSPGPVPRLVLSDLHLLTQSQVRVSWSPAEDHNAPIEKYDIEFEDKEMAPEKWYSLGKVPGNQTSTTLKLSPYVHYTFRVTAINKYGPGEPSPVSETVVTPEAAPEKNPVDVKGEGNETTNMVITWKPLRWMDWNAPQVQYRVQWRPQGTRGPWQEQIVSDPFLVVSNTSTFVPYEIKVQAVNSQGKGPEPQVTIGYSGEDYPQAIPELEGIEILNSSAVLVKWRPVDLAQVKGHLRGYNVTYWREGSQRKHSKRHIHKDHVVVPANTTSVILSGLRPYSSYHLEVQAFNGRGSGPASEFTFSTPEGVPGHPEALHLECQSNTSLLLRWQPPLSHNGVLTGYVLSYHPLDEGGKGQLSFNLRDPELRTHNLTDLSPHLRYRFQLQATTKEGPGEAIVREGGTMALSGISDFGNISATAGENYSVVSWVPKEGQCNFRFHILFKALGEEKGGASLSPQYVSYNQSSYTQWDLQPDTDYEIHLFKERMFRHQMAVKTNGTGRVRLPPAGFATE | binds | binds | binds |  |

From patent publication US20060058504A1, “Peptides capable of inducing attraction to the axonal growth and their use for treating neurodegenerative diseases” (Centre National de la Recherche Scientific (CNRS), priority 2002, published 2006)
